The values below come from publication PMC5792031.

By UniProt entry, the sequences of proteins in these tests, tags left out. Where a name states a change or a piece, a line headed by the entry shows the natural chain unless it says otherwise. Residues count along the entry.
UniProt P15682: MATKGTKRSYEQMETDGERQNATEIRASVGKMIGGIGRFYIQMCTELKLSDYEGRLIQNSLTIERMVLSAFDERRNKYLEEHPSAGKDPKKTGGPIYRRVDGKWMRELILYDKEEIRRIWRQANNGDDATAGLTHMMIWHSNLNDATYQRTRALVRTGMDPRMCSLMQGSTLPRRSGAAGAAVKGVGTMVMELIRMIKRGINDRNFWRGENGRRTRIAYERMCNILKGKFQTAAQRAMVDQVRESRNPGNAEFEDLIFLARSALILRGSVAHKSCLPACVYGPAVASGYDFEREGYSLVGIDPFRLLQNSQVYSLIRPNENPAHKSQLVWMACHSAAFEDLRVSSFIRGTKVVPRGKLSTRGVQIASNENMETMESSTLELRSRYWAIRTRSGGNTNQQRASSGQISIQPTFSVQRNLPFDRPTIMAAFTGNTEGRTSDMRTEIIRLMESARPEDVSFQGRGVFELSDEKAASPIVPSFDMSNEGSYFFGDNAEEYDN
GST-NP1-351 (influenza A virus A/WSN/33 (WSN, H1N1)): residues 1-351 of P15682
GST-NP1-271 (influenza A virus A/WSN/33 (WSN, H1N1)): residues 1-271 of P15682

No constants are given. Whether binding was seen depends on the method and setting. Binding seen in cells or lysates may run through a third protein. Some results given as binding are weak or reduced against the parent protein; the word gives no strength. Tags and fused reporters may be left off the sequences shown.

For assay [1], the target named is GST-NP1-271 (influenza A virus A/WSN/33 (WSN, H1N1)) (UniProt P15682). The assay can be described thus: pull-down.
In assay [2] the target is GST-NP1-351 (influenza A virus A/WSN/33 (WSN, H1N1)) (UniProt P15682). Put plainly: pull-down.
The target of assay [3] is GST-WSNNP (influenza A virus A/WSN/33 (WSN, H1N1)) (UniProt P15682). The assay can be described thus: pull-down; only the target purified.

B1: Flag-tagged PLSCR1 (protein, UniProt O15162-1 1-318)
chain: MDKQNSQMNASHPETNLPVGYPPQYPPTAFQGPPGYSGYPGPQVSYPPPPAGHSGPGPAGFPVPNQPVYNQPVYNQPVGAAGVPWMPAPQPPLNCPPGLEYLSQIDQILIHQQIELLEVLTGFETNNKYEIKNSFGQRVYFAAEDTDCCTRNCCGPSRPFTLRIIDNMGQEVITLERPLRCSSCCCPCCLQEIEIQAPPGVPIGYVIQTWHPCLPKFTIQNEKREDVLKISGPCVVCSCCGDVDFEIKSLDEQCVVGKISKHWTGILREAFTDADNFGIQFPLDLDVKMKAVMIGACFLIDFMFFESTGSQEQKSGVW
In the case of B1, the binding entry in assay [1] and in assay [2] was “binds” in each case.

B2: PLSCR1 (untagged, pCAGGS-PLSCR1) (protein, UniProt O15162-1 1-318)
chain: MDKQNSQMNASHPETNLPVGYPPQYPPTAFQGPPGYSGYPGPQVSYPPPPAGHSGPGPAGFPVPNQPVYNQPVYNQPVGAAGVPWMPAPQPPLNCPPGLEYLSQIDQILIHQQIELLEVLTGFETNNKYEIKNSFGQRVYFAAEDTDCCTRNCCGPSRPFTLRIIDNMGQEVITLERPLRCSSCCCPCCLQEIEIQAPPGVPIGYVIQTWHPCLPKFTIQNEKREDVLKISGPCVVCSCCGDVDFEIKSLDEQCVVGKISKHWTGILREAFTDADNFGIQFPLDLDVKMKAVMIGACFLIDFMFFESTGSQEQKSGVW
B2: in assay [3], the binding result is listed as “binds”.
